Test results as given in article PMC6394301, “Evaluation of the anticancer potential of a sulphonamide carbonic anhydrase IX inhibitor on cervical cancer cells” (Journal of Enzyme Inhibition and Medicinal Chemistry, 2019).
pIC50: −log10 of the molar value.

How the values were obtained:
PNT1-A cells = test: WST-1 cell viability assay, PNT1-A; assay type: cell-based; details: Homo sapiens, PNT1A, PNT1-A 24 h
Description: (§1) HeLa and PNT1-A were cultured in RPMI-1640 medium supplemented with 10% Foetal bovine serum (FBS) and penicillin (100 U/mL)/streptomycin ([…]), L-glutamine (2 mM) at 37 °C in a 5% CO2 humidified atmosphere. Since it is an unstable amino acid, the medium was supplemented with L-glutamine immediately prior.
(§2) WST-1 Cell Proliferation test, a product of the Roche Company is a colourimetric assay based on the cleavage of a tetrazolium salt by mitochondrial dehydrogenases to generate formazan in living cells. This assay is simple because only 10 μL of WST-1 reactant is added to 100 μL media on a 96-well plate. The cells were counted with a haemocytometer immediately before the subsequent procedures. The HeLa and PNT1A cells were used for seeding, with 5 × 10^3 cells per well, and then incubated overnight in a humidified atmosphere (37 °C with 5% CO2).
(§3) The next day, WST-1 is added to cells treated with S-1 as a cytotoxic reagent and the incubation is continued for an additional 1−2 h in a humidified atmosphere. One of the advantages of the WST-1 test is that colour change (yellow) can be seen with the naked eye.
After incubation, the plate was shaken well for 1 min. The absorbance is then measured at 450 nm versus a 650 nm reference by using a plate reader (M5, Spectra MAX) and SoftMax Pro software from Molecular Devices to compare experimental samples to controls. […]

HeLa cells = test: WST-1 cell viability assay, HeLa; assay type: cell-based; details: Homo sapiens
Description: as §1, §2, §3
After incubation, the plate was shaken well for 1 min. The absorbance is then measured at 450 nm versus a 650 nm reference by using a plate reader (M5, Spectra MAX) and SoftMax Pro software from Molecular Devices to compare experimental samples to controls.
IC50 is a measure used to estimate the potency of a material that inhibits a specific biological or biochemical function. […]
We determined the cell viability of CC cell line HeLa grown in 96-well plates for 24, 48, 72 h and treated with increasing concentrations (0, 2.5, 5, 10, 25, 50, 100, 200 μM) of S-1. Cell viability was evaluated with colourimetric WST-1 assay as described previously tested on the splitting of the tetrazolium salt by mitochondria dehydrogenases in viable cell. […] The number of viable cells was then quantified using trypan blue exclusion. […]

pIC50 (HeLa cells; HeLa 24 h): 4.28
pIC50 (HeLa cells; HeLa 48 h): 4.34
pIC50 (HeLa cells; HeLa 72 h): 4.27
SMILES: CC(=O)Nc1nnc(S(N)(=O)=O)s1 [AAZ, Acetazolamide]
pIC50 (PNT1-A cells): 4.14
